Results reported in PubChem BioAssay AID588849 (Broad Institute, 2011).
Inconclusive results, whose numbers are uncertain, are shown with a selection of clear calls. Active and inactive are the calls of the source. How the calls were made is not given here.

Amino acid sequences for entries named in this document (tags omitted). A change or cut given only in a name is not applied to a line headed by its entry.
UniProt Q9Y256: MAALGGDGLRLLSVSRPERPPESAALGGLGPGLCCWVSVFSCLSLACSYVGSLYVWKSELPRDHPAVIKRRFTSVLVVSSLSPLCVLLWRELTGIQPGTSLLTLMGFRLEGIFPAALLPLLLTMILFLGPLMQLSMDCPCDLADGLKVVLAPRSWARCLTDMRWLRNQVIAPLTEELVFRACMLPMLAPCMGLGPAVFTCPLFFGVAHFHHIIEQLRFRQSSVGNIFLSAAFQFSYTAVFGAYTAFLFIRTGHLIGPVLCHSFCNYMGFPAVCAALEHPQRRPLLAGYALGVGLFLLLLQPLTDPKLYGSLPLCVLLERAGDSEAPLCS

Target: CAAX prenyl protease 2 (Homo sapiens) (UniProt Q9Y256)
Assay: human Rce1 protease inhibitors, dose response, biochemical, yeast membranes, quenched-peptide fluorescence, cherry-pick (AID 588849)
Details: yeast membrane fractions expressing human Rce1, quenched-peptide fluorescence, 4 h; at 10 µM (top of the series)

Compound | activity change, negative = inhibition
CC1(c2ccncc2)Nc2ccccc2-c2nc3ccccc3n21 (stereo unspecified) | inconclusive: -103%
CCCCCCSc1cc(-c2nc3cc(C)ccn3c2NCCCC)ccc1OC | inactive: 4.76%
Cc1cc(=O)n2ccccc2c1C#N | inconclusive: -15%
Nc1nc2n[nH]nc2c(=O)[nH]1 | inconclusive: -19.1%
N=c1oc2cc(O)ccc2cc1C(=O)Nc1nc2ccccc2s1 | inconclusive: 50.9%
CCCc1cc(=O)n2[nH]c(C)c(-c3ccccc3)c2n1 | inconclusive: -37.4%
